Laboratory results published in paper doi:10.1101/2023.09.29.560159.
No constants are given. Whether binding was seen depends on the method and setting. Binding seen in cells or lysates may run through a third protein. Some results given as binding are weak or reduced against the parent protein; the word gives no strength.

By UniProt entry, the sequences of proteins in these tests, tags left out.
UniProt P30536: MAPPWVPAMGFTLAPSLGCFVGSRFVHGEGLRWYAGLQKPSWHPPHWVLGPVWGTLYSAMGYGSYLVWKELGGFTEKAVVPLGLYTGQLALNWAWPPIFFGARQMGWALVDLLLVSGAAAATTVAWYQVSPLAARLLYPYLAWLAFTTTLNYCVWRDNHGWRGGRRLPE
UniProt P21796: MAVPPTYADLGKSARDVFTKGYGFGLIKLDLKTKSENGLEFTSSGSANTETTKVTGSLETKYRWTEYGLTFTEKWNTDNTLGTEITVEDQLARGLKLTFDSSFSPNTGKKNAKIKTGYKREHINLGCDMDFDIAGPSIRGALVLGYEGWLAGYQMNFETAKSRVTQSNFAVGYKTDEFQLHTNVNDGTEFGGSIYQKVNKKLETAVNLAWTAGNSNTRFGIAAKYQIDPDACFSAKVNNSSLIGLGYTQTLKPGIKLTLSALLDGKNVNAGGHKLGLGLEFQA

Target: Myc-DDK tagged TSPO construct (translocator protein 18kDa) (UniProt P30536)
Assay: co-IP

binding: binds
Substance: voltage dependent anion channel 1 (VDAC1), endogenous in U373 cells (from UniProt P21796 1-283)
